These are yes or no findings as the source states them, for the method shown. Some binding calls cover weakened binding; strength is not graded here.
Columns and labels:
[1] = target: human GPRC5D (G-protein coupled receptor family C group 5 member D) (human) (UniProt Q9NZD1); experiment: flow cytometry, time-course cell binding on MM.1R cells, antibody at 10 nM (panel title; legend paragraph 51 says 5 nM), 37 C, read at 1, 3, 5 and 24 h, AF647 anti-human IgG Fc detection, MFI
[2] = target: human GPRC5D (G-protein coupled receptor family C group 5 member D) (human) (UniProt Q9NZD1); experiment: time-course flow cytometry on H929 and MM.1R cells, 37 C
[3] = target: human GPRC5D (G-protein coupled receptor family C group 5 member D) (human) (UniProt Q9NZD1); experiment: flow cytometry, time-course cell binding on H929 cells, antibody at 10 nM (panel title; legend paragraph 51 says 5 nM), 37 C, read at 1, 3, 5 and 24 h, AF647 anti-human IgG Fc detection, MFI
[4] = target: human GPRC5D (G-protein coupled receptor family C group 5 member D) (human) (UniProt Q9NZD1); experiment: flow cytometry, time-course cell binding on H929 cells, antibody at 50 nM (panel title), 37 C, read at 1, 3, 5 and 24 h, AF647 anti-human IgG Fc detection, MFI
[5] = target: human GPRC5D (G-protein coupled receptor family C group 5 member D) (human) (UniProt Q9NZD1); experiment: flow cytometry, time-course cell binding on MM.1R cells, antibody at 50 nM (panel title), 37 C, read at 1, 3, 5 and 24 h, AF647 anti-human IgG Fc detection, MFI
[6] = target: human GPRC5D (G-protein coupled receptor family C group 5 member D) (human) (UniProt Q9NZD1); experiment: flow cytometry, time-course cell binding on H929 cells, antibody at 2 nM (panel title; legend paragraph 51 says 0.5 nM), 37 C, read at 1, 3, 5 and 24 h, AF647 anti-human IgG Fc detection, MFI
[7] = target: human GPRC5D (G-protein coupled receptor family C group 5 member D) (human) (UniProt Q9NZD1); experiment: flow cytometry, time-course cell binding on MM.1R cells, antibody at 2 nM (panel title; legend paragraph 51 says 0.5 nM), 37 C, read at 1, 3, 5 and 24 h, AF647 anti-human IgG Fc detection, MFI

The chains behind the UniProt entries cited, without tags or fusion partners.
UniProt Q9NZD1: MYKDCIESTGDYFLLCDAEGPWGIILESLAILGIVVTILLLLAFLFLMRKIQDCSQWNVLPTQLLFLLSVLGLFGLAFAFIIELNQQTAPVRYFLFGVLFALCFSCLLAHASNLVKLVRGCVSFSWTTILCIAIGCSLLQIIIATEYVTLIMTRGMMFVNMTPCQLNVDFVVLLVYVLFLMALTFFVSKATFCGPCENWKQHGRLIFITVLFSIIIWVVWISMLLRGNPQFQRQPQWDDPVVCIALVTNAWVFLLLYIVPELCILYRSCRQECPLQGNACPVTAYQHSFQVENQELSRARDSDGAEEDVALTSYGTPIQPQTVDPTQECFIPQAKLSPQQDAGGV

binding [1]: binds | binding [2]: binds | binding [3]: binds | binding [4]: binds | binding [5]: binds | binding [6]: binds | binding [7]: binds
B1: GP5B82 binder (antibody, V domains shown)
VH: QVQLVESGGGVVQPGRSLRLSCAASGFTFSNYGMHWVRQAPGKGLEWVAFIWYDGSNKYYADSVKGRFTISRDNSKNTLYLQMNSLRAEDTAVYYCAPITGYSTRWGDYWGQGTLVTVSS
VL: DIQMTQSPSSLSASVGDRVTITCRASQGIRNDLGWYQQKPGKAPKRLIYAASSLQSGVPSRFSGSGSGTEFTLTISSLQPEDFATYYCLQRNTYPLTFGGGTKVEIK

Reference: patent US20260201029A1
